Assay results from PubChem BioAssay AID1347075 (National Center for Advancing Translational Sciences (NCATS), 2019).
The whole screen tested about 400,000 compounds, of which about 5,500 (1.4%) were called active. Inconclusive results, whose numbers are uncertain, are shown with a selection of clear calls. Calls come from the whole dose curve; as a rule, active = well fitted cell-killing curve with a large enough effect; inconclusive = small, poorly fitted or top-dose-only effect, or effect the other way; inactive = flat fitted curve, though single readings scatter. Where the call is inconclusive, the potency comes from a doubtful curve fit.

Assay: qHTS assay for MDR1-selective chemotherapeutics: Primary screen using the parental adenocarcinoma cell KB-3-1; note: nearly all actives have a fitted effect of over 60% in size
Conditions: KB-3-1 viability, CellTiter-Glo ATP luminescence, 72 h; activity change, negative = cytotoxic: at 46.1 µM (top of the series)
Method in brief: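 Luminescent ATP read-out (CellTiter-Glo) measures survival of drug-naive KB-3-1 cells after 72 h compound exposure at 37 °C. Titration series was screened from lowest to highest concentration, with DMSO vehicle plates as background controls.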
% is set by controls: 0 for no effect and ±100 for the full control effect; potency is the fitted concentration of half-maximal effect.

Compound | Potency | activity change, negative = cytotoxic
CN1CCN(C(=O)c2cc3nc(-c4ccccc4)cc(C(F)(F)F)n3n2)CC1 | inactive | 
COc1cccc(CNC(=O)CCC2CCCN(Cc3ccc(OC(F)F)cc3)C2)c1 (stereo not given) | inconclusive: 16.4 µM [cytotoxic, single point] | 
Clc1cc(Cl)cc(Nc2ccccc2CN(C/C=C/c2ccc3c(c2)OCO3)Cc2ccccc2)c1 | inactive | 
COc1ccc(CN2CCN(Cc3ccc(C(F)(F)F)cc3)CC2)cc1 | inconclusive: 23.1 µM [cytotoxic, single point] | 
Cc1cc(C)c2cc(C=O)c(Cl)nc2c1 | inconclusive: 16.4 µM [cytotoxic, single point] | 
Cc1cccc(NC(=O)c2ccco2)c1C | inconclusive: 0.0164 µM [rising, full curve] | 
NC(=O)[C@H]1CC2(CC(c3cccc(NC(=O)[C@H]4CCC(=O)N4)c3)=NO2)CN1C(=O)c1cc([N+](=O)[O-])cc([N+](=O)[O-])c1 (stereo not given in full) | inactive | 
COc1ccc(S(=O)(=O)N(Cc2ccccc2)c2ccccc2C(=O)N2CCOCC2)cc1 | inconclusive: 16.4 µM [cytotoxic, single point] | 
Cc1ccc(NC(=O)[C@H](C)NC(=O)C2CCN(C(=O)[C@@H](NC(=O)OC(C)(C)C)C(C)C)CC2)cc1 | inconclusive: 0.0731 µM [rising, full curve] | 
O=Cc1cccnc1SCc1ccccc1 | inconclusive: 18.4 µM [cytotoxic, partial curve, poor fit] | 
COc1ccc(CN2C[C@@H](CO)O[C@@H](n3cnc4c(NCCCO)ncnc43)C2)cc1 |  | inconclusive: -1.06%
Nc1nnc(SCC(=O)OCC(=O)NC23CC4CC(CC(C4)C2)C3)s1 | inactive | 
CCN(C(=O)Cc1nc(N)n[nH]1)C1(C(=O)Nc2ccccc2)CCCCC1 | inconclusive: 23.1 µM [rising, single point] | 
Cc1ccc(C)c2nc3sc(C(=O)N4CCOCC4)c(N)c3cc12 | inconclusive: 18.4 µM [cytotoxic, single point] | 
CCc1cccc2c(C(=O)COC(=O)c3ccc([N+](=O)[O-])s3)c[nH]c12 | inconclusive: 29.1 µM [cytotoxic, single point] | 
Cc1ncoc1C(=O)NC1CCCc2c1cnn2-c1ccc(C(C)(C)C)cc1 (stereo not given) | active: 18.4 µM | 
CCOc1cc(C(=S)N2CCOCC2)ccc1OC | inactive | 
Cc1c(CNC2CCC(C)CC2)c(C(=O)O)c(C)n1Cc1ccc(Cl)cc1 (stereo not given) | inactive | 
O=C(CSc1nnc(-c2ccccc2)c(-c2ccccc2)n1)NCCc1ccccc1 | inactive | 
COc1ccc(-n2nc(C(=O)Nc3ccc4c(c3)OCO4)c3ccccc3c2=O)c(OC)c1 | inconclusive: 16.4 µM [cytotoxic, single point] | 

Two compounds picked at random from the list so far, as already listed:
Compound | Potency | activity change, negative = cytotoxic
COc1cccc(CNC(=O)CCC2CCCN(Cc3ccc(OC(F)F)cc3)C2)c1 (stereo not given) | inconclusive: 16.4 µM [cytotoxic, single point] | 
Nc1nnc(SCC(=O)OCC(=O)NC23CC4CC(CC(C4)C2)C3)s1 | inactive | 
